# Test results from PubChem BioAssay (EPA / NIEHS).
# Sequences of proteins named here, by UniProt entry; tags and fusion partners are left off. A change or cut given only in a name is not applied to a line headed by its entry.
# UniProt O75469: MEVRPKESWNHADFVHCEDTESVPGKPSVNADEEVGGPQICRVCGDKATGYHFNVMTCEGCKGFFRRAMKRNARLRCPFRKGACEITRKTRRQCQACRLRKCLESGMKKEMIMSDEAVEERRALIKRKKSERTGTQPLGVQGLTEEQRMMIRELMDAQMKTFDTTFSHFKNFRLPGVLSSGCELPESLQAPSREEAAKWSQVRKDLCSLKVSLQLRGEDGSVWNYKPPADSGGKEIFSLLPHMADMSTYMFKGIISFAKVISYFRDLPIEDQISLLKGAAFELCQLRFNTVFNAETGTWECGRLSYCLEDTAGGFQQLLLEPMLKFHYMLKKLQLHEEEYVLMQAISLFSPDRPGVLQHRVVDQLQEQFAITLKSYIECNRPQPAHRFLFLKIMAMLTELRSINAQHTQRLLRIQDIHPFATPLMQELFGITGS
# UniProt P19793: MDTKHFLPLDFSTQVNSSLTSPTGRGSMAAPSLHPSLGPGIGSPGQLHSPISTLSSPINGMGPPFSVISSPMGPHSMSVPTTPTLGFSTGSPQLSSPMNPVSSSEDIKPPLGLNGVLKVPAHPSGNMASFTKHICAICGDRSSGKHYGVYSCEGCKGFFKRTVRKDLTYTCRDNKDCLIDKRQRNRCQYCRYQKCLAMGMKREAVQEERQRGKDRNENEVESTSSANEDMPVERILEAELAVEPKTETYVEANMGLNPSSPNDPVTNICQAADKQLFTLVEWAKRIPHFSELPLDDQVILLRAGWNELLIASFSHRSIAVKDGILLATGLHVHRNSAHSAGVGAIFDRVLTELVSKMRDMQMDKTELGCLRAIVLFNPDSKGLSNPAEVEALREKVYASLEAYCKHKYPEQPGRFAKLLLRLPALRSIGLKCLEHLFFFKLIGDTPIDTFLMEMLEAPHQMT
# UniProt P13631, whole entry, looked up: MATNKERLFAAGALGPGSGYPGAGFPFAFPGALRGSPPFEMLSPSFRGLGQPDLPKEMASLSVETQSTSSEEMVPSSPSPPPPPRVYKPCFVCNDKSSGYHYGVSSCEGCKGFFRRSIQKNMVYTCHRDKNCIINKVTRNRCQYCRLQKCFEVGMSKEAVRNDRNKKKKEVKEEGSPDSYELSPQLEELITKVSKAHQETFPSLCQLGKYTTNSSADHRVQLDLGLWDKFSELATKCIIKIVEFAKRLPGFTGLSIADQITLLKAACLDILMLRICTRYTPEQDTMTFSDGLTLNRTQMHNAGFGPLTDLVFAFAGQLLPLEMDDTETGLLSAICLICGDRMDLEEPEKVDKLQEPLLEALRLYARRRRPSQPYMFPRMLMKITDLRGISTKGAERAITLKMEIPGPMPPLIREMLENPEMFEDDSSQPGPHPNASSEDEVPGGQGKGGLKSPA
# UniProt Q92753: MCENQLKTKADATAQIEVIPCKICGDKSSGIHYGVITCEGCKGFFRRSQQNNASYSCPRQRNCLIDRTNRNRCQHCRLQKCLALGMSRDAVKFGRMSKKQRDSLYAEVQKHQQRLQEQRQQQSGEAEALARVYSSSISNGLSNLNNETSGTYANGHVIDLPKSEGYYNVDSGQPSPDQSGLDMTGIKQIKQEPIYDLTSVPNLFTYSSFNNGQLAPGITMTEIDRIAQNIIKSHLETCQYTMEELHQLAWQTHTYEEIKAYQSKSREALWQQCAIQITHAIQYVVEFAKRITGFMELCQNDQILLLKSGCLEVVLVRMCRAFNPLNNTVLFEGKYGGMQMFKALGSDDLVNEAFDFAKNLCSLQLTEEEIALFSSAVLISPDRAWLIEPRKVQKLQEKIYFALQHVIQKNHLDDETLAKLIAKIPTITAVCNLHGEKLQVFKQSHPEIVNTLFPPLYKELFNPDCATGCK
# UniProt P10827: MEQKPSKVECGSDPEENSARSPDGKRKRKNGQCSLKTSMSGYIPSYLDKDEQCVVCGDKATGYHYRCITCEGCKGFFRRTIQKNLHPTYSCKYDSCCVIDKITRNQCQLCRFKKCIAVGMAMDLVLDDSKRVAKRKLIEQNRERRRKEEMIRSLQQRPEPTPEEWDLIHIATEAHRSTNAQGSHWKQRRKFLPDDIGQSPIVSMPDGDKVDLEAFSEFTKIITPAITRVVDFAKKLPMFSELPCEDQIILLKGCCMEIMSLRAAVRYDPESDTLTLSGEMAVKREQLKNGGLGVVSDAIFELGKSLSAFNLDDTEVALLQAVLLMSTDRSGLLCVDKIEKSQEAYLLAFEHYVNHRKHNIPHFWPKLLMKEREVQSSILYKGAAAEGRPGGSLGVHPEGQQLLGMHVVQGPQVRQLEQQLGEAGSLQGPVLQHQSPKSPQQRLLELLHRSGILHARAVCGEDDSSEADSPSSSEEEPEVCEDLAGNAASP
# UniProt Q9UNQ0: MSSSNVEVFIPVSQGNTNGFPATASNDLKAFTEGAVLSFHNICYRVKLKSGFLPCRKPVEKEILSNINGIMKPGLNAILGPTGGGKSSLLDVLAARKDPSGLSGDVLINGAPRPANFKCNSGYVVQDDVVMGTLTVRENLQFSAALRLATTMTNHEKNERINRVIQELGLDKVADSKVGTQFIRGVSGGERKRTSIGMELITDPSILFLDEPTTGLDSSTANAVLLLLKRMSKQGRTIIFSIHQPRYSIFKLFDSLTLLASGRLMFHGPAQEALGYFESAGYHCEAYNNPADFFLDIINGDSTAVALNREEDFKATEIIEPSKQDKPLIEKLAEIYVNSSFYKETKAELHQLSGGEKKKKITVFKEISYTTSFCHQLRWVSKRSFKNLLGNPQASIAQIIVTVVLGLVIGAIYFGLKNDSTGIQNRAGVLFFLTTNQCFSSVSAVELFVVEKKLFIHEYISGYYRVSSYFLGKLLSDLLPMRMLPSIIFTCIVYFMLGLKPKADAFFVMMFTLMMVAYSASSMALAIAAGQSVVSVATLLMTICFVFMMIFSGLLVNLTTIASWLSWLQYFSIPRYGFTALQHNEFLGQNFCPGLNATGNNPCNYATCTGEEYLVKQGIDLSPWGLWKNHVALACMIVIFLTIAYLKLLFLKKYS
# UniProt Q16236, whole entry, looked up: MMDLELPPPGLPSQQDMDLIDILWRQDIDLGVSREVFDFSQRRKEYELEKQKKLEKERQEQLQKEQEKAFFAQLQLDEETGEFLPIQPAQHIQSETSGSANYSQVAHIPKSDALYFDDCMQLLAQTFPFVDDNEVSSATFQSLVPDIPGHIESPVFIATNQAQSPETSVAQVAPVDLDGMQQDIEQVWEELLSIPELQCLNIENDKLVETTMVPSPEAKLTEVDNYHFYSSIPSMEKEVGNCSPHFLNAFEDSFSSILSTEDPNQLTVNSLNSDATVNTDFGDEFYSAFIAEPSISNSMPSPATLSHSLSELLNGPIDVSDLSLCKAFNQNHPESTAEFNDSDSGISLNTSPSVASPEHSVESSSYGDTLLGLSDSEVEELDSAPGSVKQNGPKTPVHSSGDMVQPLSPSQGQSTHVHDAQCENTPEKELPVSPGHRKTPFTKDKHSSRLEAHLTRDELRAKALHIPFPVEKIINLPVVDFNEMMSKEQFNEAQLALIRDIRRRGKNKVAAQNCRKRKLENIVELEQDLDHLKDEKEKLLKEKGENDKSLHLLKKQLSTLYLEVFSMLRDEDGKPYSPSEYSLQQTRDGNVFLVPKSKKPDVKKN
# Where “and” joins values, the source holds several entries; their conditions need not be identical. Equal values may be shown once. For part of these data: The hits were mostly taken out for another list; the other results follow. Inconclusive results are not listed. The entries are a selection whose mix differs from that of the whole data set. The source holds several records for some structures; these can differ, active in one and inactive in another. Calls of active or inactive are those of the source. The calls were made as follows, unless noted: active = hit-call score of the fitted dose curve at least 0.9, where 1 is the maximum; inactive = score below 0.9.
# Assays:
# [1] = target: Nuclear receptor subfamily 1 group I member 2 (Homo sapiens) (UniProt O75469); assay: ATG_PXR_TRANS: Attagene TRANS-FACTORIAL HepG2 Assay for human Pregnane X Receptor (PXR) (AID 2283008; active = hit-call score of the fitted dose curve at least 0.9, where 1 is the maximum)
# How it was run: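 Multiplexed TRANS reporter panel in HepG2; this component tracks PXR-Gal4-driven reporter mRNA after 24 h dosing, measured by RT-PCR with capillary electrophoresis fluorescence, fitted against DMSO.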
# [2] = target: Retinoic acid receptor RXR-alpha (Homo sapiens) (UniProt P19793); assay: OT_NURR1_NURR1RXRa_1440: Odyssey Thera (OT) 24-hour HEK293T Protein Complementation Assay for Nurr1/retinoid X receptor (RXR) (AID 2283386; active = hit-call score of the fitted dose curve at least 0.9, where 1 is the maximum)
# How it was run: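 Steps: fragment-tagged Nurr1 and RXRα expressed in HEK293T; compounds added; after 24 h, complemented reporter quantified by fluorescence intensity; signal increase over DMSO fitted as the single endpoint.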
# [3] = read-out: Keratin 19 (KRT19), KRT19 (gene 3880); assay: LTEA_HepaRG_KRT19: Life Technologies and Expression Analysis (LTEA) Assay for Keratin 19 (KRT19) using HepaRG (AID 2283512); conditions: actives raise or lower the signal; mRNA level, 48 h
# How it was run: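 Gene-expression endpoint in the human liver line HepaRG after 48 h exposure to up to 100 uM test chemical with 0.5% DMSO vehicle; KRT19 mRNA by qRT-PCR, analyzed bidirectionally versus DMSO.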
# [4] = target: human Retinoic Acid Receptor gamma (RARg), RARG (gene 5916) (UniProt P13631); assay: ATG_RARg_TRANS: Attagene TRANS-FACTORIAL HepG2 Assay for human Retinoic Acid Receptor gamma (RARg) (AID 2283009; active = hit-call score of the fitted dose curve at least 0.9, where 1 is the maximum)
# How it was run: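 TRANS format measured activity of exogenous NR-GAL4 fusion (RARg) in transfected HepG2 liver cells after 24 h dosing. Induced reporter RNA was detected by RT-PCR/capillary electrophoresis fluorescence, analysed in the positive direction against DMSO.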
# [5] = target: human RAR-related Orphan Receptor beta (RORb), RORB (gene 6096) (UniProt Q92753); assay: ATG_RORb_TRANS: Attagene TRANS-FACTORIAL HepG2 Assay for human RAR-related Orphan Receptor beta (RORb) (AID 2283010; active = hit-call score of the fitted dose curve at least 0.9, where 1 is the maximum)
# How it was run: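 Transfect HepG2 with multiple GAL4-UAS reporter transcription units; dose chemicals for 24 h; isolate RNA, reverse-transcribe and PCR-amplify reporter sequences; label, digest and resolve fragments by capillary electrophoresis; fit increases relative to DMSO.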
# [6] = read-out: Interleukin-8 (IL8), CXCL8 (gene 3576); assay: BSK_3C_IL8: BioMAP Diversity Plus: 3C Assay for Interleukin-8 (IL8) Biomarker Activity (AID 2283020); conditions: actives raise or lower the signal; primary human endothelial cells (HUVEC)
# How it was run: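 Endothelial primary cells of human umbilical vein origin are dosed with chemical; after 24 h the IL-8 biomarker is measured by ELISA, and concentration–response is fitted in both directions versus DMSO.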
# [7] = target: human Thyroid Receptor alpha (THRa1), THRA (gene 7067) (UniProt P10827); assay: ATG_THRa1_TRANS: Attagene TRANS-FACTORIAL HepG2 Assay for human Thyroid Receptor alpha (THRa1) (AID 2283014; active = hit-call score of the fitted dose curve at least 0.9, where 1 is the maximum)
# How it was run: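 First, HepG2 cells receive multiple GAL4-UAS reporter units and the chimeric receptor. They are then dosed for 24 h, after which RNA is reverse-transcribed, amplified, labelled, HpaI-cut and sized by capillary electrophoresis; gain relative to DMSO is scored.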
# [8] = read-out: Alkaline Phosphatase, Placental (ALPP) gene, ALPP (gene 250); assay: LTEA_HepaRG_ALPP: Life Technologies and Expression Analysis (LTEA) Assay for Alkaline Phosphatase, Placental (ALPP) gene using HepaRG (AID 2283468); conditions: actives raise or lower the signal; mRNA level, 48 h
# How it was run: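 Expression of ALPP was quantified by qRT-PCR against three housekeeping genes in human HepaRG cultures treated for 48 h with an eight-point concentration series up to 100 uM. Activity in either direction was fitted relative to 0.5% DMSO.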
# [9] = read-out: Human Leukocyte Antigen - DR isotype (HLADR), HLA-DRA (gene 3122); assay: BSK_3C_HLADR: BioMAP Diversity Plus: 3C Assay for Human Leukocyte Antigen - DR isotype (HLADR) Biomarker Activity (AID 2283019); conditions: actives raise or lower the signal; primary human endothelial cells (HUVEC);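 as to outcome: ELISA of cell-surface HLA-DR on HUVEC 24 h after dosing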
# How it was run: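 Endothelial cells from human umbilical vein are treated with test chemical; after 24 h, HLA-DR levels are measured by ELISA. Data are fitted in both directions using DMSO as the baseline.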
# [10] = read-out: Human Leukocyte Antigen - DR isotype (HLADR), HLA-DRA (gene 3122); assay: BSK_CASM3C_HLADR: BioMAP Diversity Plus: CASM3C Assay for Human Leukocyte Antigen - DR isotype (HLADR) Biomarker Activity (AID 2283043); conditions: actives raise or lower the signal; primary human coronary artery smooth muscle cells;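 also: cell-surface HLA-DR protein level quantified by ELISA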
# [11] = read-out: Monokine induced gamma interferon (MIG), CXCL9 (gene 4283); assay: BSK_CASM3C_MIG: BioMAP Diversity Plus: CASM3C Assay for Monokine induced gamma interferon (MIG) Biomarker Activity (AID 2283048); conditions: actives raise or lower the signal; primary human coronary artery smooth muscle cells;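 also: MIG protein level measured by ELISA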
# [12] = read-out: Intercellular Adhesion Molecule 1 (ICAM1), ICAM1 (gene 3383); assay: BSK_KF3CT_ICAM1: BioMAP Diversity Plus: KF3CT Assay for Intercellular Adhesion Molecule 1 (ICAM1) Biomarker Activity (AID 2283067); conditions: actives raise or lower the signal; primary human keratinocytes with fibroblasts
# How it was run: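 Dose the keratinocyte/fibroblast co-culture, wait 24 h, measure ICAM-1 by ELISA, then fit increases or decreases against DMSO. Cytotoxicity is checked in parallel cultures by SRB total-protein staining.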
# [13] = read-out: Monocyte Chemoattractant Protein-1 (MCP1), CCL2 (gene 6347); assay: BSK_3C_MCP1: BioMAP Diversity Plus: 3C Assay for Monocyte Chemoattractant Protein-1 (MCP1) Biomarker Activity (AID 2283017); conditions: actives raise or lower the signal; primary human endothelial cells (HUVEC)
# How it was run: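 Endothelial cells from human umbilical vein are dosed with chemical, cultured 24 h, then assayed for MCP-1 by ELISA; both increases and decreases are modelled against DMSO controls.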
# [14] = read-out: Macrophage colony-stimulating factor (MCSF), CSF1 (gene 1435); assay: BSK_hDFCGF_MCSF: BioMAP Diversity Plus: hDFCGF Assay for Macrophage colony-stimulating factor (MCSF) Biomarker Activity (AID 2283060); conditions: actives raise or lower the signal; primary human foreskin fibroblasts
# How it was run: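 M-CSF levels, determined by ELISA, are taken at 24 h after dosing human skin fibroblasts. Responses in either direction are fitted with DMSO serving as the baseline.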
# [15] = read-out: Forkhead box O1 (FOXO1), FOXO1 (gene 2308); assay: LTEA_HepaRG_FOXO1: Life Technologies and Expression Analysis (LTEA) Assay for Forkhead box O1 (FOXO1) using HepaRG (AID 2283456); conditions: actives raise or lower the signal; mRNA level, 48 h
# How it was run: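 Using one lot of HepaRG hepatic cells kept in 0.5% DMSO, the team applied test chemicals in duplicate, half-log dilutions from 100 uM, for 48 h. Expression, normalised to ACTB/GAPDH/POLR2A, was compared with vehicle in either direction.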
# [16] = read-out: Broad substrate specificity ATP-binding cassette transporter ABCG2 (Homo sapiens) (UniProt Q9UNQ0); assay: LTEA_HepaRG_ABCG2: Life Technologies and Expression Analysis (LTEA) Assay for ABC Transporter (ABCG2) using HepaRG (AID 2283465); conditions: actives raise or lower the signal; mRNA level, 48 h
# How it was run: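 Gene expression of ABCG2 in HepaRG liver cells is quantified by qRT-PCR following 48 h exposure across an eight-point series topping at 100 uM. Values come from bidirectional fitting relative to DMSO vehicle.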
# [17] = read-out: CYP4A11 (gene 1579); assay: LTEA_HepaRG_CYP4A11: Life Technologies and Expression Analysis (LTEA) Assay for CYP4A11 using HepaRG (AID 2283486); conditions: actives raise or lower the signal; mRNA level, 48 h
# How it was run: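 Readout is CYP4A11 mRNA induction or suppression (qRT-PCR, ACTB/GAPDH/POLR2A normalization) in human HepaRG cells after 48 h chemical treatment, concentrations to 100 uM in 0.5% DMSO, fitted bidirectionally against vehicle.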
# [18] = read-out: growth arrest and DNA damage 45 (GADD45G), GADD45G (gene 10912); assay: LTEA_HepaRG_GADD45G: Life Technologies and Expression Analysis (LTEA) Assay for growth arrest and DNA damage 45 (GADD45G) using HepaRG (AID 2283499); conditions: actives raise or lower the signal; mRNA level, 48 h
# How it was run: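 Human hepatic HepaRG line treated 48 h with chemicals (eight concentrations, half-log steps from 100 uM); transcript induction or repression of GADD45G scored by qRT-PCR versus DMSO vehicle.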
# [19] = read-out: Potassium channel subfamily K member 1 (KCNK1), KCNK1 (gene 3775); assay: LTEA_HepaRG_KCNK1: Life Technologies and Expression Analysis (LTEA) Assay for Potassium channel subfamily K member 1 (KCNK1) using HepaRG (AID 2283511); conditions: actives raise or lower the signal; mRNA level, 48 h
# How it was run: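 Human HepaRG cultures receive test chemicals for 48 h in 0.5% DMSO, top concentration 100 uM with half-log dilutions. Induction or suppression of KCNK1 mRNA relative to DMSO is derived by bidirectional fitting of qRT-PCR data.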
# [20] = read-out: Nuclear factor erythroid 2-related factor 2 (Homo sapiens) (UniProt Q16236); assay: LTEA_HepaRG_NFE2L2: Life Technologies and Expression Analysis (LTEA) Assay for Nuclear factor erythroid 2-related factor 2 (NFE2L2) Transcription Factor using HepaRG (AID 2283527); conditions: actives raise or lower the signal; mRNA level, 48 h;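 also: TaqMan qRT-PCR transcript level normalised to ACTB GAPDH and POLR2A housekeeping genes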
# How it was run: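 Human liver HepaRG line treated in duplicate for 48 h with an eight-point series topping at 100 uM. Gene expression of NFE2L2 by qRT-PCR, bidirectionally fitted against the vehicle control.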
# [21] = CPHEA_Stoker_NIS_Cytotoxicity: Cytotoxicity Assessment for CPHEA's Radioactive Iodide Uptake (RAIU) Assay for Sodium/Iodide Symporter (NIS) Inhibition, Stoker and Laws Labs (AID 2283897; active = hit-call score of the fitted dose curve at least 0.9, where 1 is the maximum;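 also: active means loss of ATP signal versus DMSO meaning cytotoxicity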)
# How it was run: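 Viability in hNIS-HEK293T-EPA cells is scored as a drop in luciferase-detected ATP following 2-hour room-temperature exposure (0.001–100uM; triplicate wells, three cell passages), with DMSO as negative control.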
structure (smiles),measurement,setting,value
CCNc1nc(Cl)nc(NC(C)(C)C#N)n1,outcome,[1],inactive
same,outcome,[2],inactive
same,AC50,[3],active: 9.92 µM
CCOCN(C(=O)CCl)c1c(C)cccc1CC,outcome,[4],inactive
same,outcome,[5],inactive
CCN(CC)C(=O)SCc1ccc(Cl)cc1,outcome,[6],inactive
CSc1nc(NC(C)C)nc(NC(C)C)n1,outcome,[7],inactive
same,outcome,[8],inactive
[F][Sn]([c]1ccccc1)([c]1ccccc1)[c]1ccccc1,outcome,[7],inactive
C=C(C)C(=O)OCC(CC)CCCC (centres undefined),outcome,[4],inactive
Nc1ccc(-c2ccc(N)c(N)c2)cc1N,outcome,[9],inactive
same,AC50,[10],active: 14.6 µM
same,outcome,[11],inactive
same,outcome,[12],inactive
C=CCC1=C(C)C(OC(=O)C2C(C=C(C)C)C2(C)C)CC1=O (centres undefined),AC50,[13],active: 31.9 µM and active: 30.6 µM
same,AC50,[9],active: 31.7 µM
same,AC50,[14],active: 30.9 µM
same,outcome,[15],inactive
same,AC50,[16],active: 30.9 µM
same,AC50,[17],active: 79.7 µM
same,outcome,[18],inactive
same,outcome,[19],inactive
same,outcome,[20],inactive
same,AC50,[21],active: 34.9 µM
